Measurements from paper doi:10.1101/2021.04.14.439394.

B1: PfALBA4 (PF3D7_1347500) (protein, UniProt A0A5K1K8Y8 1-372)
chain: MENDKKHNQKQNNVDENEFPNSKVLLVSVKRTRRFLERTARELLAGGTRYIILSGLGDALPLCVQLQSSLQSKNAANVVKIETSYSYFNSNYSYTPGLKIYMEKHPEFKGSRISPGYVSFHEKTDSFTPIYDENPNEYICSLNAGDNNLYVGGEGINGAFSELLSSHNQEVDKYESLFKELLTKAVNENGEKPDEEVKSVLYDNVDKKYPDVKLALCRIRNSLKKGSDHSTGSVFIVTFKKNFPHKKEKNMGMVYVVGPKGKNYNSVEEFLDEVQETAENLMTTLCDYNGLVKREEIKHVRMNTCRICLFSGSIFKHPNASKLDVAKAILNGLAVGYRHGPSPRLNFAYDENVFKDAWVETTGLQVFNHNEQ

Key:
Assay in all cases: affinity purification with mass spectrometry
[1] = target: PfUPF2-HA (P. falciparum) (UniProt Q8I2Q1)
[2] = target: PfUPF2-HA (P. falciparum) (UniProt Q8I2Q1); remark: listed apart in the source
[3] = target: PfUPF1-HA (P. falciparum)

Molecule	binding [1]	binding [2]	binding [3]
PfGBP2 (G-strand binding protein 2; PF3D7_1006800) (from UniProt Q8IJX3)	binds		
DBP1 (PF3D7_0810600) (from UniProt Q8IAU1)	binds		
PfUPF1 (from UniProt A0A143ZY29)	binds		
B1		binds	binds

Read-outs that look alike come from different tables or passages of the source. No constants are given. Whether binding was seen depends on the method and setting. Binding seen in cells or lysates may run through a third protein. A yes stands for co-enrichment or nearness to the bait. Other partners may have been found.
